The values below come from paper PMC4385862.

By UniProt entry, the sequences of proteins in these tests, tags left out. Where a name states a change or a piece, a line headed by the entry shows the natural chain unless it says otherwise.
UniProt P05556: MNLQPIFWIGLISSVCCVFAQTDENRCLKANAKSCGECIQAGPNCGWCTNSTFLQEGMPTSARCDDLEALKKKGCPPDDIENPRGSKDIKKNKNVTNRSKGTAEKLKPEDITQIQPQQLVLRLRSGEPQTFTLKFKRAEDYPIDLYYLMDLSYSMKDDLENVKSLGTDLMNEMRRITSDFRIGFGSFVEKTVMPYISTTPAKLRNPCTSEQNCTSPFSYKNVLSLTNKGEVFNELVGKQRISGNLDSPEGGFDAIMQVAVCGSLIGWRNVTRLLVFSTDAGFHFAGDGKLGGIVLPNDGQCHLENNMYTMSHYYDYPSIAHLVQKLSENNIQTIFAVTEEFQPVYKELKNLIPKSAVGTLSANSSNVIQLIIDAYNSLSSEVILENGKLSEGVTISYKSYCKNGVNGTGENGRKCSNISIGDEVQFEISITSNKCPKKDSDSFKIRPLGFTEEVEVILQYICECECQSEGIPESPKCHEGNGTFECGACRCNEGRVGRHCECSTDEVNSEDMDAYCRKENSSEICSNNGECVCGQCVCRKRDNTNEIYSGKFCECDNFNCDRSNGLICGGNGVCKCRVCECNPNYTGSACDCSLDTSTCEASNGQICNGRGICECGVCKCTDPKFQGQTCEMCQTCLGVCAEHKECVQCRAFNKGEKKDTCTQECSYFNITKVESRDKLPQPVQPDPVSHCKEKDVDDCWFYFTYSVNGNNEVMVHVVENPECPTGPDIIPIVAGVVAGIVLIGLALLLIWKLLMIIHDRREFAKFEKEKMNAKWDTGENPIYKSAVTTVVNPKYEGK

Results are given in words; binding and its absence hold for the method and conditions named. Binding seen in cells or lysates may run through a third protein. Some results given as binding are weak or reduced against the parent protein; the word gives no strength. For some of these results: Tags and fused reporters may be left off the sequences shown.

The target in experiment [1] is T1, chloride channel-3 (ClC-3) (human (endogenous in HeLa)) (UniProt P51790).
T1 sequence: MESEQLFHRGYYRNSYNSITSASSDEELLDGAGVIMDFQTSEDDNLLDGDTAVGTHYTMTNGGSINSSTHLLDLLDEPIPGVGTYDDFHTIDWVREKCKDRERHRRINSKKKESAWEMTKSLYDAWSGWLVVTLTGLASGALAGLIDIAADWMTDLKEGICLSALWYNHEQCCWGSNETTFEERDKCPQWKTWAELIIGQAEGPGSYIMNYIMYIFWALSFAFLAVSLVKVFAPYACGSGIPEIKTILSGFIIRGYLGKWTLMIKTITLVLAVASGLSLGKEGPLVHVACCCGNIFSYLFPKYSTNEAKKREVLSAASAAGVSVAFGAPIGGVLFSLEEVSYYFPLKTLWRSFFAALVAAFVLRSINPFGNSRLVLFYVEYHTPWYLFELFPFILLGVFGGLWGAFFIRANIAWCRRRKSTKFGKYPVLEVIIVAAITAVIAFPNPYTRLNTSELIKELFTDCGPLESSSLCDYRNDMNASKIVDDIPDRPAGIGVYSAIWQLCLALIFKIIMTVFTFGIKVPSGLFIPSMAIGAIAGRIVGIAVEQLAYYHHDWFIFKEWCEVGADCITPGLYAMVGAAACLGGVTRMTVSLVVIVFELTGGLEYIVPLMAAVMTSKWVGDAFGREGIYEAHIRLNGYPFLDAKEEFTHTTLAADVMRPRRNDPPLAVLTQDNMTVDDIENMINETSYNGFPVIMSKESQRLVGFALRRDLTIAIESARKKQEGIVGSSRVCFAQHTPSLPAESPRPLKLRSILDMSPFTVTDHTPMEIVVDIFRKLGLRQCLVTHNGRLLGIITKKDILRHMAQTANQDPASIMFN
Briefly: co-IP; endogenous proteins in extract of EGF-treated (ruffling) HeLa cells; Pierce Co-Immunoprecipitation Kit, 50 μg antibody covalently immobilised on resin, lysate pre-cleared, 12 h at 4°C; done in both directions.

Experiment [2] addresses T1, chloride channel-3 (ClC-3) (human (endogenous in HeLa)). The experiment is described as above. The source holds these as a separate data set.
Experiment [3] concerns the target β1 integrin (human (endogenous in HeLa)) (UniProt P05556). The description is as above.
Experiment [4] addresses T1, chloride channel-3 (ClC-3) (human (endogenous in HeLa)). Briefly: co-IP; EGF-stimulated HeLa cells transfected with wild-type or Ser→Ala mutant GFP-K18; endogenous ClC-3 and β1 integrin.
Experiment [5] addresses β1 integrin (human (endogenous in HeLa)) (UniProt P05556). Described as above.

For the molecule “β1 integrin (from UniProt P05556 21-798) (receptor)”, the binding entry in experiment [1] is listed as “no binding”.

B1: Keratin 18 (K18) (protein, UniProt P05783 1-430)
chain: MSFTTRSTFSTNYRSLGSVQAPSYGARPVSSAASVYAGAGGSGSRISVSRSTSFRGGMGSGGLATGIAGGLAGMGGIQNEKETMQSLNDRLASYLDRVRSLETENRRLESKIREHLEKKGPQVRDWSHYFKIIEDLRAQIFANTVDNARIVLQIDNARLAADDFRVKYETELAMRQSVENDIHGLRKVIDDTNITRLQLETEIEALKEELLFMKKNHEEEVKGLQAQIASSGLTVEVDAPKSQDLAKIMADIRAQYDELARKNREELDKYWSQQIEESTTVVTTQSAEVGAAETTLTELRRTVQSLEIDLDSMRNLKASLENSLREVEARYALQMEQLNGILLHLESELAQTRAEGQRQAQEYEALLNIKVKLEAEIATYRRLLEDGEDFNLGDALDSSNSMQTIQKTTTRRIVDGKVVSETNDTKVLRH
Take B1: the binding entry in experiment [2] and in experiment [3] was “binds” each time.

B2: wild-type (WT) GFP-K18 (protein, UniProt P05783 1-430)
chain: B1 chain
As to B2, the binding result in experiment [4] and in experiment [5] was “binds” throughout.

B3: Ser-52 phosphorylated K18 (K18 pS52) (protein, UniProt P05783 1-430)
chain: B1 chain
modifications: phosphoserine at 52
Take B3: the binding entry in experiment [2] and in experiment [3] was “binds” each time.
